Source: PMC6540907 (Chemical Science, 2019)

Legend:
[1] = general procedure: Fmoc solid-phase peptide synthesis; 2-chlorotrityl resin (Rapp Polymere, 1.21 mmol/g) for folate carriers; Rink amide resin for LHRH derivatives; HATU (folate carriers); TBTU (LHRH derivatives); details: for conjugation yield: conjugation step, TFA salt
[2] = general procedure: Fmoc solid-phase peptide synthesis; Rapp S RAM resin; HATU (folate carriers); TBTU (LHRH derivatives); details: whole synthesis, scale 100 µmol, TFA salt

(7S,10S,13S,16S)-16-((((9H-fluoren-9-yl)methoxy)carbonyl)amino)-1-(4-azidophenyl)-10,13-bis(carboxymethyl)-7-(methoxycarbonyl)-1,9,12,15-tetraoxo-2,8,11,14-tetraazaoctadecan-18-oic acid
step yield ([1]; coupling step): 52%

D-Orn-N3-Gose
isolated mass [2]: 20 mg

L-Orn-LHRH-16R-Aminoratjadone
conjugation yield [1]: 70%

L-Orn-LHRH-Val-Cit-pABA-16R-Aminoratjadone
conjugation yield [1]: 45%
